Assay results: article PMC9239253
Results are given in words; binding and its absence hold for the method and conditions named. Binding seen in cells or lysates may run through a third protein. Some binding calls cover weakened binding; strength is not graded here.

Chains of the proteins cited; added tags and fusions are not shown.
UniProt Q9Y572: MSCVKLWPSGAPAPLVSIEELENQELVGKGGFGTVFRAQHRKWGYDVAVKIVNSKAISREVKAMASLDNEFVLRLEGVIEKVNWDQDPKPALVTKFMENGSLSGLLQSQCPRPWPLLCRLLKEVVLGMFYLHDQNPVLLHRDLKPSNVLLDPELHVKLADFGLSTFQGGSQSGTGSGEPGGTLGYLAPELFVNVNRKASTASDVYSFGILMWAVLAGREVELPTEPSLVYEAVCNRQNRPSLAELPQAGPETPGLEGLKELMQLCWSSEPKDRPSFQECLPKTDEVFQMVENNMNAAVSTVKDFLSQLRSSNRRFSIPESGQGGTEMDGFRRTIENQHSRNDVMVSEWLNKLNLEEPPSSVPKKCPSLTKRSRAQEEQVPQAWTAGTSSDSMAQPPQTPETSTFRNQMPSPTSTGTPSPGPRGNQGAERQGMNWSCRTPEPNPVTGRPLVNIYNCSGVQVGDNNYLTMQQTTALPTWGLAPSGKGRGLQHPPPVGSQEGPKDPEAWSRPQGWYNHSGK
UniProt Q13546: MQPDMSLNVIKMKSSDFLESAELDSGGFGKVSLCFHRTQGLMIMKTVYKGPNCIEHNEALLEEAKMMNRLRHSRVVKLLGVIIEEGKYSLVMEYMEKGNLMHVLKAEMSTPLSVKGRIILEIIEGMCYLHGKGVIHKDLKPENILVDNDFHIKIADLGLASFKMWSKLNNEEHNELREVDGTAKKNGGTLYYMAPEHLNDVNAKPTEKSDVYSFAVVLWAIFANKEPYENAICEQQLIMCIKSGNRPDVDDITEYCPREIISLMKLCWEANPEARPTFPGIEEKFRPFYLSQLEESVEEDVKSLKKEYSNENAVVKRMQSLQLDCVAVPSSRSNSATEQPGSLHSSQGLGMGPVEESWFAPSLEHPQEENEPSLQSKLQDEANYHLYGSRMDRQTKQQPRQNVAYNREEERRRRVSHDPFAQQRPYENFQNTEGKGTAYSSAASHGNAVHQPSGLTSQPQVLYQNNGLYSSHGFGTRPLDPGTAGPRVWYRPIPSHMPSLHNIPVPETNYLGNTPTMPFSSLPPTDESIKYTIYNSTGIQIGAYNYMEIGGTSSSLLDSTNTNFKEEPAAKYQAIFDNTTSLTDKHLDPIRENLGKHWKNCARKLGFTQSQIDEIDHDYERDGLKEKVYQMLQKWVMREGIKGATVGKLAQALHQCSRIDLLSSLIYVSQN

Molecular target: RIPK3 (UniProt Q9Y572)
Assay: co-IP

- binding: binds
Substance: HA-RIPK1 (from UniProt Q13546 1-671)
